Out of some 220,000 compounds screened, about 770 (0.35%) were called active. This list was built around the results that the source calls inconclusive (neither active nor inactive); the mix of calls is not that of the screen. No stated cut-off is given here; in the data, active means binding response below about 49% or above about 150%; inconclusive means no clear call, values can overlap the other calls; inactive means in between.
target: Guanine nucleotide-binding protein G(o) subunit alpha (Homo sapiens) (UniProt P09471); assay: RGS7-Galphao binding modulators, primary screen, biochemical, multiplexed bead flow cytometry (AID 1439); conditions: at 10 µM, actives lie on both sides;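 further: fluorescent Galphao held in activated GDP-AlF4 state binding bead-coupled RGS7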

Sequences of proteins named here, by UniProt entry; tags and fusion partners are left off.
UniProt P09471, whole entry, looked up: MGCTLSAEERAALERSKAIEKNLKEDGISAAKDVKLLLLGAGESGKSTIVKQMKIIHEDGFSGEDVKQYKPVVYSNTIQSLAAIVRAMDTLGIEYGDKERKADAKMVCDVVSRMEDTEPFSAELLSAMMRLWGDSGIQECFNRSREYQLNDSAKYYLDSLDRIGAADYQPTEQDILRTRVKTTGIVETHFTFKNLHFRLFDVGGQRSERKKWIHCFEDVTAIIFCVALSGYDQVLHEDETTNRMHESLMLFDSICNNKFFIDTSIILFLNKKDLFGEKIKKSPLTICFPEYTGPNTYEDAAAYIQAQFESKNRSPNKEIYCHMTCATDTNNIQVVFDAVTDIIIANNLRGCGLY

Structure (SMILES) | binding response (% of control)
CCn1ncc(NC(=S)NCCc2ccc(OC)c(OC)c2)c1C(N)=O | inactive: 101%
O=C(COc1cccnc1[N+](=O)[O-])Nc1cccc(S(=O)(=O)N2CCOCC2)c1 | inconclusive: 92.6%
Cc1occc1-c1nnc(SCCCC(=O)c2ccc(F)cc2)n1C | inactive: 95.2%
Cc1ccccc1NC(=S)N(CCCN1CCOCC1)Cc1cccnc1 | inconclusive: 104%
O=C(Nc1ccn(Cc2ccc(F)cc2)n1)c1ccncc1 | inactive: 100%
CCCCOP(=O)(OCCCC)C(O)c1ccc(N(C)C)cc1 (stereo not drawn) | inconclusive: 16.1%
CCOc1cccc(N2C(=O)CC(NNC(=O)c3ccc(Br)o3)C2=O)c1 (stereo not drawn) | inconclusive: 140%
CCNC(=O)CSc1nc2ccccc2c(=O)n1-c1cccc(OC)c1 | inconclusive: 98.5%
CC(C)C(=O)OCc1cn(-c2ccc(Cl)c(Cl)c2)nn1 | inactive: 102%
CCCCOC(=O)CCCN1C(=O)/C(=C2\SC(=S)N(CCCC(=O)OCCCC)C2=O)SC1=S | inconclusive: 113%
S=c1[nH]nc(-c2cc(-c3ccccc3)n[nH]2)n1/N=C/c1ccccc1 | inconclusive: 145%
Cc1cc(C)n(-c2nc(SCC(=O)O)c3c4c(sc3n2)COC(C)(C)C4)n1 | inconclusive: 98.7%
O=C1CC(NNc2ccccc2)C(=O)N1c1ccc(N2CCCCC2)cc1 (stereo not drawn) | inconclusive: 96.8%
Cc1cccnc1NC(=S)Nc1ncccc1C | inconclusive: 107%
COc1cc(NC(=S)NCCCN(C)C)c(OC)cc1NC(=O)c1ccco1 | inconclusive: 67.4%
Cc1ccccc1CNc1ccc(C(CC(N)=O)NC(=O)c2ccccc2)cc1[N+](=O)[O-] (stereo not drawn) | inconclusive: 120%
NC1=NC(=O)/C(=C/c2cn(Cc3ccccc3)c3ccccc23)S1 | inactive: 96.4%
CC(CN1C(C)CCCC1C)OC(=O)c1ccc(Cl)cc1Cl (stereo not drawn) | inconclusive: 106%
C/C(=N\NC(=O)CC1N=C(Cc2ccccc2)NNC1=O)c1ccc(Br)cc1 (stereo not drawn) | inconclusive: 46.7%
CSc1nnc(C(C)(C)C)c(=O)n1/N=C/c1c(O)ccc2ccccc12 | inconclusive: 82.1%
CC(=O)c1ccccc1OCCOc1ncnc2sccc12 | inconclusive: 86.9%
COc1ccc(N=C(C)C2=C(O)c3ccccc3C2=O)cc1 | inactive: 104%
O=C(Nc1nc(-c2ccccc2)c(C(=O)c2ccccc2)s1)c1ccc(S(=O)(=O)N2CCCC2)cc1 | active: 381% [activator]
COc1ccc2cc(C#N)c(Nc3cccc(F)c3)nc2c1 | inconclusive: 101%

Seven entries from above, arranged by length of the SMILES, smallest number first:
Structure (SMILES) | binding response (% of control)
Cc1cccnc1NC(=S)Nc1ncccc1C | inconclusive: 107%
CCCCOP(=O)(OCCCC)C(O)c1ccc(N(C)C)cc1 (stereo not drawn) | inconclusive: 16.1%
COc1ccc(N=C(C)C2=C(O)c3ccccc3C2=O)cc1 | inactive: 104%
CC(C)C(=O)OCc1cn(-c2ccc(Cl)c(Cl)c2)nn1 | inactive: 102%
NC1=NC(=O)/C(=C/c2cn(Cc3ccccc3)c3ccccc23)S1 | inactive: 96.4%
CSc1nnc(C(C)(C)C)c(=O)n1/N=C/c1c(O)ccc2ccccc12 | inconclusive: 82.1%
O=C(Nc1nc(-c2ccccc2)c(C(=O)c2ccccc2)s1)c1ccc(S(=O)(=O)N2CCCC2)cc1 | active: 381% [activator]

Later entries.

Structure (SMILES) | binding response (% of control)
CC1(OC(=O)C2CCCC2)C(=O)C=C2C=C3CCCCN3C=C2C1=O (stereo not drawn) | inconclusive: 76.7%
O=C(COC(=O)c1ccccc1O)Nc1cccc(S(=O)(=O)NC2=NCCCCC2)c1 | inconclusive: 69.7%
Cn1c(=O)[nH]c2ncccc21 | inconclusive: 46.8%
NC(=S)NNC(=O)c1cccc(Br)c1 | inactive: 100%
O=C(CSc1cccs1)Nc1ccc(Cl)cc1 | inconclusive: 54.7%
N#Cc1c(N)n(-c2cccc(C(=O)O)c2)c2nc3ccccc3nc12 | inconclusive: 102%
Oc1ccc2ccccc2c1CN1CCOCC1 | inconclusive: 124%
COc1cccc(NC(=O)CN2C(=O)NC(C)(CCC(C)C)C2=O)c1 (stereo not drawn) | inconclusive: 75.2%
CC(C)c1ccc(N)c(S(=O)(=O)O)c1 | inconclusive: 89.8%
Cc1ccc(NC(=O)C/C(N)=N/O)cc1Cl | inconclusive: 157%
O=C(COC(=O)c1cc(NS(=O)(=O)c2cccs2)ccc1O)Nc1ccc(F)c(F)c1F | inconclusive: 102%
CCn1ccc(-c2ccccc2)c(C#N)c1=O | inactive: 102%
CCc1ccc(/C=N/NC(=O)c2cc(-c3cccc([N+](=O)[O-])c3)n[nH]2)cc1 | inconclusive: 51.7%
O=C(NNC(=S)NC1CC2C=CC1C2)c1cccnc1 (stereo not drawn) | inconclusive: 141%
CCOc1ccc(C(=O)Nc2nc(C)c(C(=O)OC)s2)cc1 | inconclusive: 155%
NS(=O)(=O)c1cccc(NC(=O)CSc2nnnn2-c2ccccc2)c1 | inconclusive: 80.5%
O=C(O)/C=C/c1ccc(S(=O)(=O)NCc2ccco2)cc1 | inconclusive: 98.4%
CN(c1ccccc1)S(=O)(=O)c1cccc(NC(=O)c2cc3ccccc3oc2=O)c1 | inconclusive: 47.2%
CC1(C)CC(=O)C2=C(C1)OC(N)=C([N+](=O)[O-])C2c1ccc(F)cc1 (stereo not drawn) | inconclusive: 115%
CC(C)=C(NC(=O)c1ccccc1)C(=O)NCc1ccccc1 | inactive: 108%
CCC1(CC)NC(=O)N(CC(=O)OCC(=O)NC(=O)c2ccccc2)C1=O | inconclusive: 17.4%
N=c1c(C(=O)NCc2ccc(F)cc2)cc2c(=O)n3ccccc3nc2n1CC1CCCO1 (stereo not drawn) | inactive: 106%
O=C(O)/C=C(\Oc1ccccc1)C1(O)CCCCC1 | inconclusive: 41%
COc1ccc(NC(=O)CN(c2ccc([N+](=O)[O-])cc2)S(=O)(=O)c2ccccc2)c(OC)c1 | inactive: 101%

Structure (SMILES) | binding response (% of control)
CCOCCCNC(=O)C(c1ccc(Cl)cc1)N(Cc1cccs1)C(=O)c1ccccn1 (stereo not drawn) | inconclusive: 111%
Cc1cc(C)c(-c2cc(NC(=O)COC(=O)c3ccc(CO)cc3)n(-c3ccccc3)n2)cc1C | inactive: 106%
O=C(O)/C=C/c1cnn(-c2ccccc2)c1 | inactive: 98.8%
O=C(N/N=C/c1cccnc1)c1cccs1 | inconclusive: 95%
CCN1C(=O)/C(=C\c2ccncc2)SC1=S | inconclusive: 105%
COc1cc(-c2nnc(-c3cc(OC)c(OC)c(OC)c3)o2)cc(OC)c1OC | inactive: 98.9%
CC(=O)Nc1ccc2sc(C)nc2c1 | inconclusive: 100%
CC(=O)NC(Cc1cccc(F)c1)C(=O)NC1CCN(C(=O)c2ccc(C)cc2)CC1 (stereo not drawn) | inactive: 93.7%
CC(=O)c1ccc(N2CCN(C(=O)CCCc3nc4ccccc4s3)CC2)cc1 | inactive: 107%
COc1cccc(CNC(=O)C(C(=O)NCc2cccc(OC)c2)c2ncc(C(F)(F)F)cc2Cl)c1 | inactive: 107%
Cn1c(CCCOc2ccc(Cl)cc2Cl)nnc1SCC(=O)Nc1ccc(F)c(Cl)c1 | inactive: 102%
CCCCNC(=S)NNC(=O)c1ccncc1 | inconclusive: 91.6%
Cc1cccc2sc(NC(=O)CCn3cccc3)nc12 | inconclusive: 104%
Cc1sc2ncnc(Nc3ccccc3)c2c1C | inactive: 138%
CC(=O)NNc1nc(-c2ccc(C)cc2)cs1 | inconclusive: 86.7%
COc1ccc(C(=S)N2CCCCC2)cc1Br | inconclusive: 97.9%
CCn1c(SCC(=O)Nc2nnc(C)s2)nnc1-c1ccco1 | inactive: 97.7%
Cc1c(Cc2ccccc2)c(=O)oc2cc(O)ccc12 | inconclusive: 99.2%
CN1CCN(c2nc3c(c(=O)n(C)c(=O)n3C)n2CC(=O)C23CC4CC(CC(C4)C2)C3)CC1 | inactive: 140%
CC(C)c1ccc(NC(=O)Cn2c(=O)oc3cccnc32)cc1 | inconclusive: 108%
Cc1ccc(-c2cc(C(F)(F)F)c(C#N)c(=O)[nH]2)cc1 | inactive: 99.5%
CCC(C)N=Cc1c(Nc2ccccc2)nc2c(C)cccn2c1=O (stereo not drawn) | inconclusive: 86%
O=C(N/N=C/c1c(Cl)cccc1Cl)C(=O)NC1CC1 | inconclusive: 75.8%
CC(C(=O)NN)c1ccc([N+](=O)[O-])cc1 (stereo not drawn) | inconclusive: 118%

Structure (SMILES) | binding response (% of control)
COc1ccccc1NC(=O)Nc1ccnn1Cc1cccs1 | active: -20.5%
S=c1[nH]cc(-c2ccccc2)[nH]1 | inconclusive: 124%
CNC(=O)/C(C#N)=C/c1cccc(Oc2ccccc2)c1 | inconclusive: 132%
C=C(C)CN1C(=O)C(=O)N(CC(=C)C)C1=O | inconclusive: 100%
CN(C)S(=O)(=O)c1ccc(Cl)c(NC(=O)CN2C(=O)NC(C)(C3CC3)C2=O)c1 (stereo not drawn) | inconclusive: 96.2%
COc1cc(/C=N/n2c(-c3n[nH]c4c3CCC4)n[nH]c2=S)ccc1O | inconclusive: 92.5%
CCCCCCC(C)n1[nH]c(=O)c2c(C)cc(C)nc21 (stereo not drawn) | inconclusive: 89.1%
Cc1ccc2c(c1)C(c1ccccc1)N(C(=O)c1ccc3c(c1)OCO3)CC(=O)N2 (stereo not drawn) | inconclusive: 97.5%
O=C(O)CC1(CC(=O)Nc2ccc3sccc3c2)CCCCC1 | inconclusive: 127%
COc1cc(/C=C/C(=O)O)cc(S(=O)(=O)NCC2CCCO2)c1OC (stereo not drawn) | inconclusive: 63%
Cc1ccc2nc(-c3ccc(NS(=O)(=O)c4c(C)n(C)c(=O)n(C)c4=O)cc3)sc2c1 | inconclusive: -111%
C=C(C)COc1ccc(-c2[nH]ncc2-c2ccc(OC)cc2)c(O)c1 | inconclusive: 36%
Cc1cc(=O)n2cccc(O)c2n1 | inactive: 101%
NS(=O)(=O)c1ccc(C(=O)Nc2ccc(-c3nc4cccnc4s3)cc2)cc1 | inconclusive: 49.7%
C=CCSc1nnc2c(n1)OC(c1ccccn1)N(C(C)=O)c1ccccc1-2 (stereo not drawn) | active: 168% [activator]
O=C(NC1CCCCC1)c1cccc(Cn2cc(Cl)cn2)c1 | inactive: 98.8%
COc1ccc(Oc2c(O)c3ccccc3n(C)c2=O)cc1 | active: 16.8%
Cc1c(NC(=O)COC(=O)c2ccccc2Cl)c(=O)n(-c2ccccc2)n1C | inactive: 99.9%
CN(c1ccc(C(=O)Nc2ccc3c(c2)OCO3)cc1)S(C)(=O)=O | inconclusive: 103%
CCOC(=O)C(O)C1CCc2c([nH]c3ccc(C)cc23)C1=O (stereo not drawn) | inconclusive: 61%
O=C(O)c1ccc2cccnc2n1 | inconclusive: 89.5%
